Measured data: PubChem BioAssay AID1259308 (NCATS, 2017)

Assay: 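Candidate targets for better recombinant protein yield in mammalian cells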 (primary screen)
System: human HEK293 embryonic kidney cells stably expressing firefly luciferase (HEK-CMV-Luc2-Hygro)
Knock-down reagent: single siRNA against human genes, 0.8 pmol siRNA per well
Duration: 72 h
Measurement: 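Reporter luminescence and viable-cell signal on separate replicate plates, given as percent of non-targeting control and median/MAD z-scores, plus per-cell luciferase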
Scale: total luciferase, z-score: higher = more reporter protein produced
Call rule: 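An siRNA counts as active if its total luciferase robust z-score exceeds 3; genes with two or more such siRNAs out of three were retested with fresh siRNAs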
Calls: active = raised luciferase; inactive = no rise
The whole screen tested about 59,000 reagents; shown is a part drawn at random. About 1,510 of them (2.6%) were called active. 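Calls use total luciferase alone and ignore viability, so some active siRNAs may act by altering cell number.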 Entries without a mark were called inactive. The numbers tell different reagents against one gene apart. Not all columns of the deposit are shown.

total luciferase, z-score, by gene and reagent
ACO2P1 (ACO2 pseudogene 1): #1 2.83; #2 2.08; #3 -0.0349
BCL2L11 (BCL2 like 11): #1 2.01; #2 0.134; #3 0.674
ALG6 (ALG6 alpha-1,3-glucosyltransferase): #1 -0.562; #2 0.572; #3 0.551
CRYBG2 (crystallin beta-gamma domain containing 2): #1 -0.396; #2 0.348; #3 0.136
MBD6 (methyl-CpG binding domain protein 6): #1 -0.623; #2 3.41 (active); #3 0.962
SEPTIN6 (septin 6): #1 0.00591; #2 1.5; #3 -0.84
SNX2 (sorting nexin 2): #1 0.765; #2 0.194; #3 -1.74
TEP1 (telomerase associated protein 1): #1 -0.345; #2 -1.17; #3 -1.57
IL13 (interleukin 13): #1 -1.07; #2 -0.449; #3 2.11
CYB5R3 (cytochrome b5 reductase 3): #1 2.7; #2 1.07; #3 1.05
LSM4: #1 2.49; #2 2.14; #3 0.681
MSI2 (musashi RNA binding protein 2): #1 -1.26; #2 2.79; #3 -0.749
PRSS35 (serine protease 35): #1 0.303; #2 -0.00675; #3 0.72
ACSL1 (acyl-CoA synthetase long chain family member 1): #1 2.51; #2 -0.031; #3 0.157
SNRNP25 (small nuclear ribonucleoprotein U11/U12 subunit 25): #1 0.734; #2 1.02; #3 0.282
LINC00200 (long independently transcribed non-coding RNA 200): #1 0.273; #2 2.05; #3 0.844
TBX15 (T-box transcription factor 15): #1 -0.127; #2 0.87; #3 -0.701
KARS1 (lysyl-tRNA synthetase 1): #1 -0.747; #2 -1.6; #3 -2.23
UEVLD (UEV and lactate/malate dehyrogenase domains): #1 0.234; #2 -2; #3 0.541

Hits, among the entries above:
total luciferase, z-score, by gene and reagent
MBD6 (methyl-CpG binding domain protein 6): #2 3.41 (active)
